# The list shows a part of the results.
# The chains behind the UniProt entries cited, without tags or fusion partners. Where a name states a change or a piece, a line headed by the entry shows the natural chain unless it says otherwise.
# UniProt Q9NRR8: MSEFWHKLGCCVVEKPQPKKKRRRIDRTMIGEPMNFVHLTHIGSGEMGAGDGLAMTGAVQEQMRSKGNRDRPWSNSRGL
# UniProt O95319: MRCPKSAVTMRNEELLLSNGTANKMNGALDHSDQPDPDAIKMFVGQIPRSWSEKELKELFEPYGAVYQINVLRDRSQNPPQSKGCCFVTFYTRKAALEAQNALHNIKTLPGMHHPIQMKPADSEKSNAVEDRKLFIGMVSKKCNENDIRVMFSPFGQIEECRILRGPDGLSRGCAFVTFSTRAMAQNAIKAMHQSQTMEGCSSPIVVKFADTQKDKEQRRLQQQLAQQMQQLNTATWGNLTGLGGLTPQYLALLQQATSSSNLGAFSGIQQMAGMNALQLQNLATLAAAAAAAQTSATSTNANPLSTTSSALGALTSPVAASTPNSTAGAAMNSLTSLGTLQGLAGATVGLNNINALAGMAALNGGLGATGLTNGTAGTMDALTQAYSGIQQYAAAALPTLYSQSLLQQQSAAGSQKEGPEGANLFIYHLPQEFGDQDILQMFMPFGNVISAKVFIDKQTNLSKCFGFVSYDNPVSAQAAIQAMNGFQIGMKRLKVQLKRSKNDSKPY
# UniProt Q8WUX2: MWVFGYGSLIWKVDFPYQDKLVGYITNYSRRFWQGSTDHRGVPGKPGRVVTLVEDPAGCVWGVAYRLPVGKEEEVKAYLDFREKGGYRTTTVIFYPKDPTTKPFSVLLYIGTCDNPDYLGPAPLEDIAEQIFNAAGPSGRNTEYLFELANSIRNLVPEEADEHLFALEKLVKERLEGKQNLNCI
# UniProt Q8N4Q1: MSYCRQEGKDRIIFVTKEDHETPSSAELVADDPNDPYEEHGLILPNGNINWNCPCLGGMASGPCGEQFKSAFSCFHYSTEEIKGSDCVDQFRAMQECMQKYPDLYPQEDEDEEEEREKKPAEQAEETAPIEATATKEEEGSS
# UniProt Q86X02: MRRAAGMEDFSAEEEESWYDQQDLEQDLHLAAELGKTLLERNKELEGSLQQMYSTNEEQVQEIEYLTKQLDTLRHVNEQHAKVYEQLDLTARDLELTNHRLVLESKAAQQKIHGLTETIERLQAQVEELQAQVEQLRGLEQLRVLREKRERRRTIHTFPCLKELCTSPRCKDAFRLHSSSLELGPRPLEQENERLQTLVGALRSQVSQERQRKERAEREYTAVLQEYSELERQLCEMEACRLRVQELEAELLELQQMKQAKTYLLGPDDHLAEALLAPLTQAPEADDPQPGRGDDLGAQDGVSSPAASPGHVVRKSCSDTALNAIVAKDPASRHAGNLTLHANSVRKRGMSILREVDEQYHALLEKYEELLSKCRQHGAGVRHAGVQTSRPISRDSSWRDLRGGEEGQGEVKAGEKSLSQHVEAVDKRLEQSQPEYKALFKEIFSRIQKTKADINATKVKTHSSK
# UniProt Q92903: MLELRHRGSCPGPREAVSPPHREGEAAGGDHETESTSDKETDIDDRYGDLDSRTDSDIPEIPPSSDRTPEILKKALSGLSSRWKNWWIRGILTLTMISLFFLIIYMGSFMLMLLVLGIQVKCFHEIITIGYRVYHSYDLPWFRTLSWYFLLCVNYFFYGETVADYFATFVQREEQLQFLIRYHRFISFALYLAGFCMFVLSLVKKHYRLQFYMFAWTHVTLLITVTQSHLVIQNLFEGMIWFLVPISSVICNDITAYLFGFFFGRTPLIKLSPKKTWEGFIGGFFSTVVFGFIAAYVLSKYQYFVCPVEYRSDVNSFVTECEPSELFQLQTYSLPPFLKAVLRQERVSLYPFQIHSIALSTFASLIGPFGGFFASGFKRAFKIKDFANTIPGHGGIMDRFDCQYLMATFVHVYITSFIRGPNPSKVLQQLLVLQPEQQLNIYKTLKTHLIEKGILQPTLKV
# UniProt Q6ZU80: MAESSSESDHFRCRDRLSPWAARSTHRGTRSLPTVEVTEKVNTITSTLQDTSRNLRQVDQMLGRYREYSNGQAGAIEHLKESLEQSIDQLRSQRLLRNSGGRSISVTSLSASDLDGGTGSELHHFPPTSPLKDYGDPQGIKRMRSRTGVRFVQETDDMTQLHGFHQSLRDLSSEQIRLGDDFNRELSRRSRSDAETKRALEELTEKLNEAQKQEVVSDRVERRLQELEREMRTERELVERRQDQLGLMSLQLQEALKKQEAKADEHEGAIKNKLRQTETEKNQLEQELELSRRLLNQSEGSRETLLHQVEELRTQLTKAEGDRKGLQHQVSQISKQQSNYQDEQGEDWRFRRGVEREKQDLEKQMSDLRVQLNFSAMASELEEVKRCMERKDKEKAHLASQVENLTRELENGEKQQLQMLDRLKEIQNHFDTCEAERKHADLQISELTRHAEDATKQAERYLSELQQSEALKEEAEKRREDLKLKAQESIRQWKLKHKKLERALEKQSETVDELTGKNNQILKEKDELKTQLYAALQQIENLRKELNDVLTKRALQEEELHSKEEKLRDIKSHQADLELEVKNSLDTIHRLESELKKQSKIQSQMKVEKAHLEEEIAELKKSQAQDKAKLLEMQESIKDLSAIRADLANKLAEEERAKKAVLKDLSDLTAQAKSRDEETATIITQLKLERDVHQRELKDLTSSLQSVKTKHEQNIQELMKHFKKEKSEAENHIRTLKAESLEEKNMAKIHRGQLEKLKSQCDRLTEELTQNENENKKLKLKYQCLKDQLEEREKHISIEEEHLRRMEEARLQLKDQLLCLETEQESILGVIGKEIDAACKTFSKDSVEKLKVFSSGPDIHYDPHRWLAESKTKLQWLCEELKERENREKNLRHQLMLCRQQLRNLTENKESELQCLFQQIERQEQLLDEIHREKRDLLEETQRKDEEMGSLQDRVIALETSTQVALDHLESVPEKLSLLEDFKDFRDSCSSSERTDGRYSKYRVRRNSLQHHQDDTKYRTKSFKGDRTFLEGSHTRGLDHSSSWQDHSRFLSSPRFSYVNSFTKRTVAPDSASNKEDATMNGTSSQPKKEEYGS
# UniProt P21127: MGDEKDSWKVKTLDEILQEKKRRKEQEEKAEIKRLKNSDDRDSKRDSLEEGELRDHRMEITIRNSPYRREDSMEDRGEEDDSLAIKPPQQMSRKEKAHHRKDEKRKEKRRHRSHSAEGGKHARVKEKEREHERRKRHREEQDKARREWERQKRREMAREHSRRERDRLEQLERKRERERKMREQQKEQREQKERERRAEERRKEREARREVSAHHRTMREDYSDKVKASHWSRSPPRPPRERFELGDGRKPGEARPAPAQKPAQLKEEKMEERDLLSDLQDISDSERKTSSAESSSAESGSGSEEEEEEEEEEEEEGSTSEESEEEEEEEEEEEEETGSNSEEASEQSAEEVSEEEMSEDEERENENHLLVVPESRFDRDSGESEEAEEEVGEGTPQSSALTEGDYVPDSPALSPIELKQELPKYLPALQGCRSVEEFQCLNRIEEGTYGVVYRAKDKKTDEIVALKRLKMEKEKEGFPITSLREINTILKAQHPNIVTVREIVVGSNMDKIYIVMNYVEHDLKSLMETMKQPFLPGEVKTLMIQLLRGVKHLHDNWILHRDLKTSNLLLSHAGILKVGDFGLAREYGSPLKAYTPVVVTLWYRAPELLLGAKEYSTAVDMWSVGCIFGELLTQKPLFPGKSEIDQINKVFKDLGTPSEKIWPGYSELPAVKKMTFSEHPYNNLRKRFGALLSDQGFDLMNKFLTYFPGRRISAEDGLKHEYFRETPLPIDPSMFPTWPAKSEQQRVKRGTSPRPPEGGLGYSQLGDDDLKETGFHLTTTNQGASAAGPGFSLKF
# UniProt Q6IPU0: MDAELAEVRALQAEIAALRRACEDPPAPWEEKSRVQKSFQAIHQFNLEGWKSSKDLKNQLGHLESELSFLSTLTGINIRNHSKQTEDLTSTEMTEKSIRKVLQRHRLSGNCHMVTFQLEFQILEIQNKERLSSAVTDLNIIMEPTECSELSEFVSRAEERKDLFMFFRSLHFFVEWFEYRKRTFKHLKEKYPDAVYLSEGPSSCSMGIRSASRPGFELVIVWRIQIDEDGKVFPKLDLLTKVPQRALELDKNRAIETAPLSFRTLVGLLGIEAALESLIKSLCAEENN
# UniProt A8MTT3: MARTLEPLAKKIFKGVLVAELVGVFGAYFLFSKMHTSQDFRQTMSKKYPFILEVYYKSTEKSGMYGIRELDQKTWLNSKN
# UniProt Q5VXU3: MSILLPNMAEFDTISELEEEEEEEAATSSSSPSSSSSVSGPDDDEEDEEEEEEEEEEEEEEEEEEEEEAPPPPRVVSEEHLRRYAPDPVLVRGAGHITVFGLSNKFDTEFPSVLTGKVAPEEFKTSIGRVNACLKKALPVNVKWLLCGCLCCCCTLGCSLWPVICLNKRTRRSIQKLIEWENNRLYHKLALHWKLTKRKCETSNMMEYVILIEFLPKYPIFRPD
# UniProt Q9Y6H1: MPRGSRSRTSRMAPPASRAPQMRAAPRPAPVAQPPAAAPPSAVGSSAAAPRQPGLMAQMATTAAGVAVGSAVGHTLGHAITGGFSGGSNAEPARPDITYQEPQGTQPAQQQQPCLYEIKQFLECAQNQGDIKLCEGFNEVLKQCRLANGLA
# UniProt Q8IWX8: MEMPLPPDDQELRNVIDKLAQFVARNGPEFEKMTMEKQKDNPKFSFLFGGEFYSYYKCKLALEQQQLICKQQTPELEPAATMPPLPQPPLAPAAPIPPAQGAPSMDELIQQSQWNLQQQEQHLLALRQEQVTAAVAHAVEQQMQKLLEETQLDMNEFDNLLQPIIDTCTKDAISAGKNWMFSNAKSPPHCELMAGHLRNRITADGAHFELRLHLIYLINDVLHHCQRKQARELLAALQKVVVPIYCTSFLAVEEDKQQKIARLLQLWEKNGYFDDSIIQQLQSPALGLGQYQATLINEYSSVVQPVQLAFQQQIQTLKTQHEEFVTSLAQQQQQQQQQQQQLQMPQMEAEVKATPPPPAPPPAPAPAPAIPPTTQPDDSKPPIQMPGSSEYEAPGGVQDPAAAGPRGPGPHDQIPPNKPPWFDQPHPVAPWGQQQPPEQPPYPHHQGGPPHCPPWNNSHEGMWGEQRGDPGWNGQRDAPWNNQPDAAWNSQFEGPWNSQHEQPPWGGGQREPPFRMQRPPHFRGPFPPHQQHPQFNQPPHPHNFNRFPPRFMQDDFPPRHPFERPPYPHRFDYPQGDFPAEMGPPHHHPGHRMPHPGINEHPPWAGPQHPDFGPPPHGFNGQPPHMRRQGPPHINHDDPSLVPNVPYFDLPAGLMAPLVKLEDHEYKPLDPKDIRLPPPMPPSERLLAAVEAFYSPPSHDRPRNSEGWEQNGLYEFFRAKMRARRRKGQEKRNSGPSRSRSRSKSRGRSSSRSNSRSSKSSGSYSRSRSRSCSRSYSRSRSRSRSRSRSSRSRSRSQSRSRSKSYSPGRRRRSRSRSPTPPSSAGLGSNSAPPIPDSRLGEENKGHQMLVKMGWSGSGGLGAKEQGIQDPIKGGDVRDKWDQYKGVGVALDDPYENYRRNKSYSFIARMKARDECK
# UniProt P17676: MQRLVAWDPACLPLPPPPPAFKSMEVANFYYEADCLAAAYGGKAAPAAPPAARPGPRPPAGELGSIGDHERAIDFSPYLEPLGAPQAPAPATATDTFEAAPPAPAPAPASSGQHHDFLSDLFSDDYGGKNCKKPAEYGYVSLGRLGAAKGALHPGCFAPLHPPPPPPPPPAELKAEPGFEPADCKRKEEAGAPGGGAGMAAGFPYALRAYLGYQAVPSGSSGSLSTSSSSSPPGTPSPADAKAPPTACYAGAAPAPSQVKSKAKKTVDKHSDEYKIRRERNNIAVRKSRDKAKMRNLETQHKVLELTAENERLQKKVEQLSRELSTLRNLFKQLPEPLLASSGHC
# UniProt Q96G28: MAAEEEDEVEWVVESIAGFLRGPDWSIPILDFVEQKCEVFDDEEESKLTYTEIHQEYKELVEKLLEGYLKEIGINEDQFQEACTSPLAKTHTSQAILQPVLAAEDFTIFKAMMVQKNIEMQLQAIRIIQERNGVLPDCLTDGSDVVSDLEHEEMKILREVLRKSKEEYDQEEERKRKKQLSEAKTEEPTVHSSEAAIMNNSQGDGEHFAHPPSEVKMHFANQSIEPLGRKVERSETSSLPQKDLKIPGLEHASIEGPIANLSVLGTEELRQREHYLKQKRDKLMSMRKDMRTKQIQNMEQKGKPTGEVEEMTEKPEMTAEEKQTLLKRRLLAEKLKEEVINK
# UniProt P49918: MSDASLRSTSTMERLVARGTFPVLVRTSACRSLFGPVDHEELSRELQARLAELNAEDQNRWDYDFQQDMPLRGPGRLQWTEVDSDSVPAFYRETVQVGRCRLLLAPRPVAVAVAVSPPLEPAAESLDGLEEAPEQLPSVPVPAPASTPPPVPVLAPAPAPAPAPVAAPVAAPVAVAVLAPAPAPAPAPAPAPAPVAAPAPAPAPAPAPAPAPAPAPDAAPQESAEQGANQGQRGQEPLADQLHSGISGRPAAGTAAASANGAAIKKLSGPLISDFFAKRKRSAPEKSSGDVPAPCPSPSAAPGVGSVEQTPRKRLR
# UniProt Q8WYQ3: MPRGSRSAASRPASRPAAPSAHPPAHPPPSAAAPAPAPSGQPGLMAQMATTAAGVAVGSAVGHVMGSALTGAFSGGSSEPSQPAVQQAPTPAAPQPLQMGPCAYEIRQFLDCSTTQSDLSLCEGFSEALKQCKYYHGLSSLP
# Columns and labels:
# Test in all cases: log2 fold change, soluble protein after heating vs DMSO (PISA); higher = thermal stabilisation; K562 cells, 10 uM, 30 min; active = over 0.2 and 3.5 SD of the protein, either way, in both replicates (recomputed)
# saracatinib = compound: CN1CCN(CCOc2cc(OC3CCOCC3)c3c(Nc4c(Cl)ccc5c4OCO5)ncnc3c2)CC1 [saracatinib]
# Outline: (§1)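 K562 cells at 2×10^6 cells/mL were given 10 μM compound for 30 min. Aliquots then went through 3 min of heating across 48°C-58°C, were pooled, and were extracted in PBS with 0.5% NP-40 at 4°C, and the supernatant after 21,000xg for 90 min was quantified by TMTpro 16plex LC-MS/MS with channel sums equalised. Thermal stability relative to control samples, from duplicates, is given as log2 fold change.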
# sotrastaurin = compound: CN1CCN(c2nc(C3=C(c4c[nH]c5ccccc45)C(=O)NC3=O)c3ccccc3n2)CC1 [sotrastaurin]
# Outline: as §1
# Tubastatin A = compound: CN1CCc2c(c3ccccc3n2Cc2ccc(C(=O)NO)cc2)C1 [Tubastatin A]
# Outline: as §1
# [1] = compound: CNC(=O)C1=CC=CC=C1NC2=NC(=NC=C2Cl)NC3=C(C=C(C=C3)N4CCOCC4)OC
# Outline: as §1
# defactinib = compound: CNC(=O)c1ccc(Nc2ncc(C(F)(F)F)c(NCc3nccnc3N(C)S(C)(=O)=O)n2)cc1 [defactinib]
# Outline: as §1
# rucaparib = compound: CNCc1ccc(-c2[nH]c3cc(F)cc4c3c2CCNC4=O)cc1 [rucaparib]
# Outline: as §1
# [2] = compound: CNc1nc(-c2ccc3c(N)n[nH]c3c2)cc(N2C[C@@H](C(=O)NC3CCCCC3)CC[C@H]2C)n1
# Outline: as §1
# encorafenib = compound: COC(=O)N[C@@H](C)CNc1nccc(-c2cn(C(C)C)nc2-c2cc(Cl)cc(NS(C)(=O)=O)c2F)n1 [encorafenib]
# Outline: as §1
# [3] = compound: COC(=O)[C@H](CCSC)NC(=O)C1=C(C=C(C=C1)NC[C@H](CS)N)C2=CC=CC=C2
# Outline: as §1
# alvocidib = compound: CN1CC[C@H](c2c(O)cc(O)c3c(=O)cc(-c4ccccc4Cl)oc23)[C@H](O)C1 [alvocidib]
# Outline: as §1
Target,log2 fold change (saracatinib),log2 fold change (sotrastaurin),log2 fold change (Tubastatin A),log2 fold change [1],log2 fold change (defactinib),log2 fold change (rucaparib),log2 fold change [2],log2 fold change (encorafenib),log2 fold change [3],log2 fold change (alvocidib)
CHAMP1 (UniProt Q96JM3),inactive: 0.103,inactive: -0.007,inactive: -0.036,inactive: -0.064,inactive: -0.104,inactive: 0.053,inactive: -0.001,inactive: 0.048,inactive: 0.049,
CDC42SE1 (UniProt Q9NRR8),inactive: 0.074,inactive: -0.033,active: -0.562,inactive: 0.228,inactive: -0.041,inactive: 0.087,inactive: 0.01,inactive: -0.032,inactive: 0.077,
CEP170B (UniProt Q9Y4F5),inactive: -0.022,inactive: -0.081,,,inactive: 0.112,inactive: 0.234,inactive: 0.13,inactive: 0.095,inactive: -0.016,
CDK12 (UniProt Q9NYV4),inactive: -0.113,inactive: -0.406,inactive: 0.165,inactive: -0.309,inactive: -0.052,inactive: 0.072,inactive: 0.003,inactive: 0.09,inactive: 0.157,
CELF2 isoform 3 (UniProt O95319),inactive: -0.011,inactive: 0.076,inactive: -0.102,inactive: -0.034,inactive: 0.098,inactive: 0.125,inactive: -0.099,inactive: -0.041,inactive: -0.032,
CHAC2 (UniProt Q8WUX2),inactive: -0.016,inactive: -0.028,inactive: -0.02,inactive: -0.02,inactive: -0.07,inactive: 0.122,inactive: -0.05,inactive: 0.237,inactive: 0.025,
CHCHD4 isoform 2 (UniProt Q8N4Q1),inactive: 0.277,inactive: 0.003,inactive: 0.061,inactive: 0.199,inactive: -0.049,inactive: -0.007,inactive: 0.202,inactive: -0.046,inactive: -0.034,
CDR2L (UniProt Q86X02),inactive: 0.063,,inactive: 0.043,inactive: -0.128,inactive: -0.06,inactive: -0.053,inactive: -0.034,inactive: -0.126,inactive: -0.013,inactive: -0.266
CDS1 (UniProt Q92903),inactive: 0.094,,,inactive: -0.128,,,inactive: 0.115,,,inactive: 0.04
CHEK1 (UniProt O14757),inactive: 0,active: -0.271,inactive: 0.09,active: -0.32,inactive: -0.031,inactive: -0.071,inactive: 0.003,inactive: 0.043,inactive: 0,
CEP128 (UniProt Q6ZU80),inactive: -0.092,inactive: -0.022,inactive: 0.024,,inactive: 0.027,inactive: -0.306,inactive: -0.22,inactive: 0.061,inactive: 0.044,
CDK11B (UniProt P21127),inactive: -0.039,inactive: 0.035,inactive: 0.137,inactive: -0.098,inactive: -0.162,inactive: -0.323,inactive: -0.052,inactive: 0.077,inactive: -0.039,
CDK5RAP3 isoform 4 (UniProt Q96JB5),inactive: -0.009,inactive: -0.099,inactive: 0.024,inactive: 0.035,inactive: -0.045,inactive: -0.029,inactive: 0.002,inactive: 0.033,inactive: -0.043,
CHAF1A (UniProt Q13111),inactive: 0.008,inactive: 0.004,,inactive: 0.133,,inactive: 0.198,inactive: -0.125,inactive: 0.094,,
CENPP (UniProt Q6IPU0),inactive: -0.056,,inactive: -0.004,inactive: -0.041,,,inactive: 0.096,,,inactive: -0.091
CENPC (UniProt Q03188),inactive: 0.142,,,inactive: 0.118,inactive: 0.048,inactive: 0.24,inactive: -0.006,inactive: 0.076,inactive: 0.052,inactive: 0.033

Target,log2 fold change (saracatinib),log2 fold change (sotrastaurin),log2 fold change (Tubastatin A),log2 fold change [1],log2 fold change (defactinib),log2 fold change (rucaparib),log2 fold change [2],log2 fold change (encorafenib),log2 fold change [3],log2 fold change (alvocidib)
CEBPZOS (UniProt A8MTT3),inactive: 0.079,,inactive: -0.06,inactive: 0.039,inactive: -0.012,inactive: 0.159,inactive: -0.032,inactive: -0.038,inactive: -0.02,
CDK5RAP1 (UniProt Q96SZ6),inactive: 0.192,inactive: 0.072,active: -0.238,inactive: 0.044,inactive: 0.022,inactive: 0.035,inactive: 0.057,inactive: 0.053,inactive: -0.048,
CHIC1 (UniProt Q5VXU3),inactive: -0.148,inactive: 0.035,inactive: -0.096,inactive: 0.022,,inactive: -0.21,inactive: -0.07,inactive: -0.09,,
CHCHD2 (UniProt Q9Y6H1),inactive: 0,inactive: -0.031,inactive: -0.058,inactive: 0.087,inactive: -0.002,inactive: -0.065,inactive: -0.049,inactive: -0.01,inactive: 0.061,
CHERP (UniProt Q8IWX8),inactive: 0.045,inactive: -0.167,inactive: 0.119,inactive: -0.006,inactive: -0.29,inactive: 0.022,inactive: -0.046,inactive: 0.058,inactive: 0.002,
CENPU (UniProt Q71F23),inactive: 0.151,inactive: 0.1,inactive: 0.043,inactive: 0.152,,,inactive: 0.178,,,
CEBPB (UniProt P17676),inactive: 0.123,,inactive: -0.304,inactive: -0.002,,inactive: 0.122,inactive: 0.046,inactive: 0.026,,inactive: 0.148
CFAP36 isoform 2 (UniProt Q96G28),inactive: -0.01,inactive: -0.023,inactive: 0.116,inactive: 0.1,inactive: 0.13,inactive: 0.064,inactive: -0.058,inactive: 0.053,inactive: 0.05,
CENPE (UniProt Q02224),inactive: 0.318,inactive: -0.19,inactive: 0.091,inactive: -0.277,inactive: -0.056,,inactive: 0.399,,inactive: 0.198,
CDKN1C (UniProt P49918),inactive: 0.046,inactive: -0.284,,,,inactive: 0,inactive: -0.193,inactive: -0.404,,
CDKN2AIP (UniProt Q9NXV6),inactive: 0.057,inactive: 0.023,inactive: 0.013,inactive: 0.052,inactive: 0.055,inactive: -0.055,inactive: 0.033,inactive: 0.02,inactive: -0.029,
CEP83 (UniProt Q9Y592),,,,,,inactive: 0.182,,inactive: -0.073,,
CHCHD10 (UniProt Q8WYQ3),,,,inactive: -0.065,inactive: -0.243,inactive: 0.076,,inactive: 0.02,inactive: 0.091,
CHMP2A (UniProt M0R1T5),,,inactive: 0.086,,,,,,,
CENPJ (UniProt Q9HC77),,inactive: 0.034,inactive: 0.149,inactive: -0.08,,,,,,
CDC42EP3 (UniProt Q9UKI2),,,,inactive: -0.232,,,,,,

# An excerpt of these results, with bars between the fields.
Target | log2 fold change (saracatinib) | log2 fold change (sotrastaurin) | log2 fold change (Tubastatin A) | log2 fold change [1] | log2 fold change (defactinib) | log2 fold change (rucaparib) | log2 fold change [2] | log2 fold change (encorafenib) | log2 fold change [3] | log2 fold change (alvocidib)
CHIC1 (UniProt Q5VXU3) | inactive: -0.148 | inactive: 0.035 | inactive: -0.096 | inactive: 0.022 |  | inactive: -0.21 | inactive: -0.07 | inactive: -0.09 |  | 
CHCHD2 (UniProt Q9Y6H1) | inactive: 0 | inactive: -0.031 | inactive: -0.058 | inactive: 0.087 | inactive: -0.002 | inactive: -0.065 | inactive: -0.049 | inactive: -0.01 | inactive: 0.061 | 

# Reference: the supplement of paper PMC10849652
